Reference: paper PMC11115335
These are yes or no findings as the source states them, for the method shown. Binding seen in cells or lysates may run through a third protein. Some entries that bind do so weakly or less than the wild type.

By UniProt entry, the sequences of proteins in these tests, tags left out.
UniProt P41233: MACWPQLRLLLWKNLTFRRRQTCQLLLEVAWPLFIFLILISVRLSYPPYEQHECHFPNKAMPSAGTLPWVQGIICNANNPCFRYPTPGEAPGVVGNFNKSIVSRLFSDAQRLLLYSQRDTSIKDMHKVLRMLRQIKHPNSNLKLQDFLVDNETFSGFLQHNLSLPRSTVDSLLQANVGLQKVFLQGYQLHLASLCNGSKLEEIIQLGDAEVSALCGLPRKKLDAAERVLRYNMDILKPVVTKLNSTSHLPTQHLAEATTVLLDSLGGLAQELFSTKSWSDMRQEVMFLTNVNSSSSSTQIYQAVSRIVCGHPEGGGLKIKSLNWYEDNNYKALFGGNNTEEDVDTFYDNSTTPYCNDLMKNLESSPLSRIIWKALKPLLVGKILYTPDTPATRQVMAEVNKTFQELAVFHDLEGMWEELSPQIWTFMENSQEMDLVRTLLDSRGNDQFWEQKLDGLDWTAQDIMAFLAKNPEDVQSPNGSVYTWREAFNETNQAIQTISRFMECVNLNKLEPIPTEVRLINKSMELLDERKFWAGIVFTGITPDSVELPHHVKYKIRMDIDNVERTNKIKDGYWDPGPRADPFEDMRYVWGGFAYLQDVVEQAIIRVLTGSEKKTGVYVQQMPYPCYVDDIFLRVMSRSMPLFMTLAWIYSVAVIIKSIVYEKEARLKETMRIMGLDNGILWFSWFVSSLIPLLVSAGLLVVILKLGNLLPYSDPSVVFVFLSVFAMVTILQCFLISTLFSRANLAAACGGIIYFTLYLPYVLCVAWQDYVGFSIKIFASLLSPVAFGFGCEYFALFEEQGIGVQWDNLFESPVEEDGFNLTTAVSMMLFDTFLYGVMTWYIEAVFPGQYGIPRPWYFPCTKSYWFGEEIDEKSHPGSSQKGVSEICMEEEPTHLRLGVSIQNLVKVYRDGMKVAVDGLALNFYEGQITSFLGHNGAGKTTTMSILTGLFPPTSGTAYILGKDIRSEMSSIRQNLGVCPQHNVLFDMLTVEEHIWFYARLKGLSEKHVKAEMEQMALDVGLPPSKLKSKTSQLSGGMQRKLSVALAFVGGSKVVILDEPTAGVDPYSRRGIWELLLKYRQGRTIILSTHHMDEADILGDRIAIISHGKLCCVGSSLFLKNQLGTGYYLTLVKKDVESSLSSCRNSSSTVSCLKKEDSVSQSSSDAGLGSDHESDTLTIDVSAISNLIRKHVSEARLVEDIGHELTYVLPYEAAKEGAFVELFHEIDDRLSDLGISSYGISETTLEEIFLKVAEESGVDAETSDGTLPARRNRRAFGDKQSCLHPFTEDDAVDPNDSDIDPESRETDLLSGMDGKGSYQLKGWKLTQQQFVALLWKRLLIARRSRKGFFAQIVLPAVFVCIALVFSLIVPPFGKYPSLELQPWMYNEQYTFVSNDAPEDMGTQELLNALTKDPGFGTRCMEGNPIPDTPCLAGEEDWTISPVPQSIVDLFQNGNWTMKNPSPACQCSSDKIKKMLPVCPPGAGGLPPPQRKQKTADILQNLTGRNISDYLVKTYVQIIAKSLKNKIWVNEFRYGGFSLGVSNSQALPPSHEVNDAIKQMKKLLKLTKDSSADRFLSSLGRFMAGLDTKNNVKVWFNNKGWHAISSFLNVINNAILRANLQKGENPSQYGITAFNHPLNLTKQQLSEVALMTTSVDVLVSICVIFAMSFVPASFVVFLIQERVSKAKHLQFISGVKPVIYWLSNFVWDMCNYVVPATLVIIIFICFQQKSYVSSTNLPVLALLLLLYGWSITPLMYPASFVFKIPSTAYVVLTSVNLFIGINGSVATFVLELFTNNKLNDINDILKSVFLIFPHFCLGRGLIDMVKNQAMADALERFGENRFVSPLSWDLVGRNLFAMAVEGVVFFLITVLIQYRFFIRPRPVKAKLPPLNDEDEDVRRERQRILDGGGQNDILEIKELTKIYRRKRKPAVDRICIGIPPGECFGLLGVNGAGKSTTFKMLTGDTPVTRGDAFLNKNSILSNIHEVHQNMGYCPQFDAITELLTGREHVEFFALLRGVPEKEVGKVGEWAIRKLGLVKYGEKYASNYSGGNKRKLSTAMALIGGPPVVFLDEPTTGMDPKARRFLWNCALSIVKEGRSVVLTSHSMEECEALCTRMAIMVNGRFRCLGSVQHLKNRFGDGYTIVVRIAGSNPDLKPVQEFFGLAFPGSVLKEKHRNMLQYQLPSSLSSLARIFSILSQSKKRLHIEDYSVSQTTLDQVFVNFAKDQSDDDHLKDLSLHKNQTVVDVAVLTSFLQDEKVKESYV

Target: T1, caveolin-1 (mouse (endogenous in MAECs)) (UniProt P49817)
T1 sequence: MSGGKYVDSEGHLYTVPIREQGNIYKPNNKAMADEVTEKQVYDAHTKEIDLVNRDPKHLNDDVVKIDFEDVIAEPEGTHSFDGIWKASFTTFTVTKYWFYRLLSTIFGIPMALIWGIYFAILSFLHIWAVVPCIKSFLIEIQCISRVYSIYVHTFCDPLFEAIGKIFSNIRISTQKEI
Assay: co-IP; MAECs treated with vehicle medium or 20 ug/ml apoAI at 37°C for 16 h, cross-linked with 250 uM dithiobis(succinimidyl propionate), lysed in 50 mM Tris HCl pH 8, 150 mM NaCl, 1% TX100, 2 mM EDTA; lysate incubated with clean and then CAV1 antibody-associated Protein A/G Plus agarose beads; Western blot with ABCA1 and CAV1 antibodies

binding: binds
Substance: ATP-binding cassette transport A1 (from UniProt P41233 1-2261)
